From PubChem BioAssay AID1487 (National Center for Advancing Translational Sciences (NCATS), 2009) come the findings set out here.

The list shows a part of the results. Shown are side measurements of this screen, not its main read-out; they come without a call. Most of these compounds were active or inconclusive in the main read-out, so they are no random draw. The note in brackets gives the kind of curve behind each potency; many fits are weak.

The assay can be described thus: qHTS Assay for Modulators of Lamin A Splicing. Particulars: HeLa LMNA splicing GFP/RFP minigene ratio, 48 h. The gist of the method: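 S3 HeLa stable clones carrying a lamin A-EGFP splicing minigene plus DsRed2 were seeded at 600 cells/well in Opti-MEM with 2% FBS, pin-dosed and incubated 48 h at 37°C. Acumen cytometry (488 nm) gave the GFP/RFP total-intensity ratio.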

Setting [1] is: measured here: GFP splicing reporter channel.
The mark [2] stands for this setting: measured here: RFP viability control channel.

On to `Cc1occc1C(=O)NNC(=O)c1cccc(F)c1`, for which the AC50 was 0.00316 µM [falling, full curve, poor fit] under setting [1] and 5.62 µM [falling, single point] under setting [2]. Take `CCc1ccc(NC(=O)Cn2c3[n+](c4c(F)c(F)ccc42)CCCCC3)cc1`: under setting [1], the concentration at half-maximal activity (AC50) was 0.0891 µM [falling, full curve, poor fit].

As to `CCOC(=O)Nc1cccc(OCC(=O)Nc2ccc(OC)cc2OC)c1`, the half-maximal activity concentration (AC50) reads like this: under setting [1], 11.2 µM [rising, partial curve]; under setting [2], 15.8 µM [rising, partial curve]. Take `N=C1S/C(=C\c2ccc(-c3cccc(Cl)c3)o2)C(=O)N1c1nccs1`: the concentration at half-maximal activity (AC50) under setting [2] was 2.51 µM [rising, full curve].

Consider `COCCNC(=O)CCCn1c(=O)c2cc(OC)c(OC)cc2n(CC(=O)NCCC2=CCCCC2)c1=O`, for which the AC50 under setting [1] is 0.794 µM [rising, full curve, poor fit] and the AC50 under setting [2] is 0.631 µM [rising, full curve, poor fit].

Take `COc1cc(NC(=O)CN2C(=O)C(c3ccccc3)=NC23CCCCCC3)cc(OC)c1`: the AC50 under setting [2] was 17.8 µM [rising, single point]. On to `Cc1cc(N2CCC(C(=O)N3CCN(c4cccc(C)c4C)CC3)CC2)n2ncnc2n1`, for which the AC50 under setting [1] is 0.891 µM [rising, partial curve] and the half-maximal activity concentration (AC50) under setting [2] is 11.2 µM [rising, partial curve]. For the compound `Oc1ccc2ccccc2c1CN1CCCC1`, the AC50 under setting [1] is 0.00447 µM [rising, full curve, poor fit]. For `O=Cc1ccc(Sc2nnc(-c3ccccc3)o2)c([N+](=O)[O-])c1`, the AC50 under setting [1] is 22.4 µM [falling, single point].

In the case of `CCC(=O)N(CC)c1nc(-c2ccc(OC)cc2)cs1`, the AC50 by setting is: under setting [1], 11.2 µM [rising, single point]; under setting [2], 15.8 µM [rising, single point].

With `Cc1ccccc1NC(=S)NNC(=O)c1cccc(Br)c1`, the concentration at half-maximal activity (AC50) is 0.282 µM [falling, full curve, poor fit] under setting [1] and 0.631 µM [falling, full curve, poor fit] under setting [2]. Take `N/C(=N/OS(=O)(=O)c1ccc([N+](=O)[O-])cc1)c1ccncc1`: the AC50 under setting [1] is 0.501 µM [rising, full curve, poor fit]. Take `CC(/C=C1\SC(=S)N(NC(=O)c2cccc(O)c2)C1=O)=C\c1ccccc1`: under setting [2], the AC50 was 35.5 µM [rising, single point]. With `COc1cc(C(=O)NC(=S)Nc2ccc(NC(=O)c3ccco3)cc2)cc(OC)c1OC`, the half-maximal activity concentration (AC50) under setting [1] is 35.5 µM [falling, single point] and the AC50 under setting [2] was 35.5 µM [falling, single point]. Regarding `CC(C)c1ccc(C(=O)Nc2cc(-c3ccccc3F)nn2-c2ccccc2)cc1`, the AC50 under setting [1] is 0.0282 µM [rising, full curve, poor fit].

For `O=C1C2C3C=CC(CC3)C2C(=O)N1/N=C/c1ccc(O)c(O)c1` (stereo unspecified), the AC50 under setting [1] is 35.5 µM [falling, single point]. For the compound `COc1ccc(CN2CCN(CC=C(C)C)C(CCO)C2)cc1Cn1cccn1` (stereo unspecified), under setting [2], the half-maximal activity concentration (AC50) was 0.00501 µM [falling, full curve, poor fit]. In the case of `O=C(C1CCC(CNS(=O)(=O)c2cccc3cccnc23)CC1)N1CCc2ccccc21` (stereo unspecified), the AC50 under setting [2] was 15.8 µM [rising, single point].

Take `CCOc1nc(C)cc(COC)c1C(N)=O`: under setting [1], the AC50 was 0.562 µM [rising, full curve, poor fit]. As for `Cc1ccc(C)c(OCC(=O)Nc2ccc3c(c2)OCO3)c1`, the AC50 under setting [2] was 17.8 µM [rising, partial curve, poor fit]. `C=CCNCCCOc1ccc(Cl)cc1C(C)(C)C`: the AC50 under setting [1] is 35.5 µM [falling, single point]. On to `CSc1ccccc1NC(=O)C1CC(c2ccccc2O)=NO1` (stereo unspecified), for which the AC50 by setting is: under setting [1], 17.8 µM [rising, partial curve, poor fit]; under setting [2], 14.1 µM [rising, partial curve]. For the compound `Cc1ccc(-c2nc(CCN3C(=O)c4ccccc4C3=O)cs2)cc1`, the AC50 under setting [1] is 12.6 µM [falling, single point].

For the compound `Cc1cccc(C(=O)N2CCc3cc(CNS(=O)(=O)c4ccc(Cl)s4)ccc32)c1`, under setting [1], the AC50 was 0.398 µM [rising, single point]. Regarding `CC(Sc1ncc(C(F)(F)F)cc1Cl)C(=O)NC(N)=O` (stereo unspecified), under setting [1], the AC50 is 0.501 µM [rising, partial curve, poor fit].

Consider `O=C(NCc1ccccc1)c1ccc(CSc2nc3cccnc3n2Cc2cccc(F)c2)cc1`, for which the AC50 was 11.2 µM [falling, partial curve] under setting [1] and 17.8 µM [falling, partial curve] under setting [2].

As to `Cc1ccc(C(=O)c2cnc3cc4c(cc3c2S(=O)(=O)c2ccccc2)OCCO4)cc1`, the AC50 under setting [1] was 12.6 µM [falling, partial curve, poor fit].

Consider `COc1ccc(CN(C)C(C)C(=O)Nc2ccc([N+](=O)[O-])cc2Cl)cc1OC` (stereo unspecified), for which the concentration at half-maximal activity (AC50) by setting is: under setting [1], 14.1 µM [rising, partial curve]; under setting [2], 20 µM [rising, partial curve].

In the case of `COc1cc2nc(C3CCC3)nc(N3CCN(c4ccccn4)CC3)c2cc1OC`, the concentration at half-maximal activity (AC50) is 11.2 µM [rising, single point] under setting [1] and 15.8 µM [rising, single point] under setting [2]. `CCOC(=O)c1sc(NC(=O)c2ccc(S(=O)(=O)N3CCOCC3)cc2)nc1-c1ccccc1`: under setting [2], the concentration at half-maximal activity (AC50) was 31.6 µM [rising, single point]. For `COc1cc(OC)c(C(=O)OC(C)C(=O)Nc2cc(C(F)(F)F)ccc2Cl)cc1OC` (stereo unspecified), the concentration at half-maximal activity (AC50) under setting [1] is 11.2 µM [rising, single point] and the AC50 under setting [2] was 20 µM [rising, partial curve]. `O=C(c1ccncc1)c1ccc(Br)cc1`: the half-maximal activity concentration (AC50) under setting [2] was 17.8 µM [rising, single point]. The same measure, in the same setting: in the case of `Cc1ccccc1CN1C(=O)c2ccccc2Sc2ccc(C(=O)N3CCCC3)cc21` it was 0.0316 µM [falling, full curve, poor fit]. For `CCCc1nc2ccccc2n2c(-c3ccccc3)c3c(=O)n(C)c(=O)n(C)c3c12`, the half-maximal activity concentration (AC50) runs as follows: under setting [1], 12.6 µM [rising, single point]; under setting [2], 20 µM [rising, single point]. In the case of `O=C1CCCc2c1[nH]c1ccc(Cl)cc21`, the AC50 under setting [2] was 1.41 µM [falling, full curve].

As for `COc1ccc(CNC(=O)c2cc(SC)ccc2Cl)cc1OC`, the AC50 under setting [2] is 14.1 µM [rising, single point]. Turning to `Cc1cccc(CN2CCN(C(=S)Nc3ccccc3)CC2)c1`, the concentration at half-maximal activity (AC50) runs as follows: under setting [1], 20 µM [falling, partial curve, poor fit]; under setting [2], 22.4 µM [falling, partial curve, poor fit]. As for `Cc1cc(C(=O)COc2ccccc2C(N)=O)c(C)n1C`, under setting [2], the AC50 is 22.4 µM [rising, single point]. Consider `COc1cc2c(cc1O)CC[C@@H]1[C@@H]2CC[C@]2(C)[C@@H](O)CC[C@@H]12`, for which the AC50 under setting [2] is 8.91 µM [falling, partial curve].

For `O=[N+]([O-])c1ccc(OCc2cccc(COc3ccc([N+](=O)[O-])cc3)n2)cc1`, the half-maximal activity concentration (AC50) runs as follows: under setting [1], 17.8 µM [rising, partial curve, poor fit]; under setting [2], 12.6 µM [rising, partial curve]. Take `COC(=O)c1ccc(-c2ccc(/C=N/N3C(=O)C4C5C=CC(C6CC56)C4C3=O)o2)cc1` (stereo unspecified): under setting [2], the half-maximal activity concentration (AC50) was 0.316 µM [rising, full curve]. For `CC1CCN(C(=O)/C=C/c2ccc(C(C)(C)C)cc2)CC1`, the concentration at half-maximal activity (AC50) under setting [1] was 12.6 µM [rising, partial curve] and the AC50 under setting [2] was 25.1 µM [rising, single point].

Regarding `CCc1nnc(NC(=O)CCN(c2cc(C)cc(C)c2)S(=O)(=O)c2ccc(Cl)cc2)s1`, the half-maximal activity concentration (AC50) under setting [2] was 2.51 µM [rising, full curve, poor fit].

On to `CCOc1ccc(C2C(C#N)=C(N)Oc3n[nH]c(C)c32)cc1OC(=O)C1CC1` (stereo unspecified), for which the AC50 under setting [2] was 0.224 µM [falling, full curve, poor fit]. In the case of `C[C@]12CC[C@H]3c4ccc(O)cc4CC[C@@H]3[C@H]1CC[C@@H]2OP(=O)(O)O`, the concentration at half-maximal activity (AC50) is 4.47 µM [rising, full curve, poor fit] under setting [1] and 35.5 µM [falling, single point] under setting [2]. For `CC(C)Cn1c(=O)c(C(=O)NCc2ccccn2)c(O)c2ccccc21`, the AC50 under setting [2] is 15.8 µM [rising, single point]. For `O=C(CCN1CCc2ccccc21)c1ccc2c(c1)OCCO2`, the AC50 runs as follows: under setting [1], 3.55 µM [rising, full curve, poor fit]; under setting [2], 12.6 µM [rising, partial curve]. As for `O=C(CSc1nc2c([nH]c3ccccc32)c(=O)n1-c1ccc(Cl)cc1)N1CCOCC1`, under setting [2], the AC50 was 0.0708 µM [rising, full curve, poor fit]. As to `Cc1nc(SCC(=O)NCc2ccc3c(c2)OCO3)c(C#N)c2c1CCCC2`, the AC50 is 31.6 µM [rising, single point] under setting [1] and 17.8 µM [rising, single point] under setting [2]. Turning to `Cc1ccc(-c2nnn(CC(=O)Nc3ccccc3N3CCOCC3)n2)cc1`, the AC50 is, setting by setting: under setting [1], 12.6 µM [rising, single point]; under setting [2], 25.1 µM [rising, single point]. For the compound `Cc1ccc(C(=O)N(CC(=O)NC2CCCCC2)c2ccccc2F)s1`, the AC50 under setting [1] is 0.0251 µM [rising, full curve, poor fit].

Consider `O=C(Nc1ccc(Cl)c(Cl)c1)OCc1cccnc1`, for which the AC50 under setting [2] was 25.1 µM [rising, single point].

Consider `S=C(Nc1ccc(Cl)cc1)N1CCCCC1`, for which the AC50 is, setting by setting: under setting [1], 17.8 µM [rising, single point]; under setting [2], 20 µM [rising, single point]. In the case of `CC(C)(C)NC(=O)NC(=O)CN1CCC(Cc2ccccc2)CC1`, the half-maximal activity concentration (AC50) is, setting by setting: under setting [1], 11.2 µM [rising, partial curve, poor fit]; under setting [2], 20 µM [rising, single point].
